# Strings that start with PEPTIDE1 are HELM notation: dots part the residues, brackets hold end groups and non-standard residues.
# Assay: general procedure: Fmoc solid-phase peptide synthesis
# Conditions: whole synthesis, linear ion trap LC/MS with electrospray ionization and amino acid analysis
substance,measurement,value
PEPTIDE1{M.V.R.I.K.P.G.S.A.N.K.P.S.D.D}$$$$V2.0,final LC-MS purity,>95%

# Reference: patent publication US20250092103 (published 2025)
